The assay addresses T1, BET-1 full length (C. elegans) (UniProt Q95Y80).
T1 sequence: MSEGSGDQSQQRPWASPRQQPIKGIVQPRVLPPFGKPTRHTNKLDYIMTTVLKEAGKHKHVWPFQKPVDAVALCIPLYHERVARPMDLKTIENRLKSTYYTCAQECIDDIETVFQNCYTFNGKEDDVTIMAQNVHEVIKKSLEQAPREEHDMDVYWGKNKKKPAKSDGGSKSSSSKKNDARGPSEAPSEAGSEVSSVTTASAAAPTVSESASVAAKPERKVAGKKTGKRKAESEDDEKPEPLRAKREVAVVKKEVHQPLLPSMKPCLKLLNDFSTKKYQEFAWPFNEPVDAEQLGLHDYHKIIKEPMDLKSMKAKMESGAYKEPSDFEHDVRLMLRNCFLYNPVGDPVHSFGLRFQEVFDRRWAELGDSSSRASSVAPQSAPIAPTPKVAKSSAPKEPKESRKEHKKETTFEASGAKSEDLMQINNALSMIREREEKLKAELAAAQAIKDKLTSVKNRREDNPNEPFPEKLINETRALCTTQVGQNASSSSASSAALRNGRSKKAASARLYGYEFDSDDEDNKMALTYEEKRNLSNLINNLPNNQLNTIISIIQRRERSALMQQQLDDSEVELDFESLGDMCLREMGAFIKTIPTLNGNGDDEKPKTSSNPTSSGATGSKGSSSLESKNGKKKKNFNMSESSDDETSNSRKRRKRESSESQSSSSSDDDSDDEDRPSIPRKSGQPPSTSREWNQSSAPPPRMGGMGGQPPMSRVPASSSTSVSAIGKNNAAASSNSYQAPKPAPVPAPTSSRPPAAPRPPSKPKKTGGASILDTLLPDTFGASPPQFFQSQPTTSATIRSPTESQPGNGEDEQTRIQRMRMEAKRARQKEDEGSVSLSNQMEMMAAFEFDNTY
In words: two-hybrid; yeast; BET-1 full length or fragments as pLexA-NLS baits, SMO-1 or UBC-9 as pACT preys; six serial 1:5 dilutions spotted on CSM-Leu-Trp and CSM-Leu-Trp-His, 30°C, 72 hours.

These are yes or no findings as the source states them, for the method shown. Some results given as binding are weak or reduced against the parent protein; the word gives no strength.

B1: UBC-9 (enzyme, UniProt Q95017 1-166)
chain: MSGIAAGRLAEERKHWRKDHPFGFIAKPVKNADGTLNLFNWECAIPGRKDTIWEGGLYRIRMLFKDDFPSTPPKCKFEPPLFHPNVYPSGTVCLSLLDENKDWKPSISIKQLLIGIQDLLNHPNIEDPAQAEAYQIYCQNRAEYEKRVKKEAVKYAAELVQKQMLE
Take B1: the binding entry is “binds”.

The record behind these values is publication PMC3862036.
